Measured data: PubChem BioAssay AID743121 (NCATS, 2013)

Assay: 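Knock-downs that sensitise breast cancer cells to camptothecin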 (primary screen)
Cells: MDA-MB-231 cells, a human breast cancer line
Knock-down reagent: single siRNA against human genes, 20 nM siRNA (0.8 pmol per well)
Time to read-out: 120 h (drug added 48 h after transfection, read 72 h later)
Conditions: camptothecin 20 nM (about EC30) for 72 h; vehicle 0.1% DMSO in parallel plates
Measurement: 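CellTiter-Glo ATP signal, scaled to control siRNA as percent viability; sensitisation given as log2 of untreated divided by camptothecin-treated viability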
Direction: log2 vehicle/camptothecin viability: higher = stronger sensitisation to camptothecin; viability with camptothecin: higher = more viable cells
Active means: 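Each gene scored by redundant siRNA activity (RSA) over its individual siRNA ratios; a gene is called active at p < 0.001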
Shown is an unselected part of about 26,000 reagents tested. 167 of them (0.63%) were called active. 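Calls are per gene from RSA p-values that are not deposited; an individual active-marked siRNA can sensitise only weakly.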 Unmarked entries are inactive. The numbers tell different reagents against one gene apart. Not all columns of the deposit are shown. No sequences are given here.

gene symbol	reagent	log2 vehicle/camptothecin viability	viability with camptothecin (% of control)
DUOX2	1	0.0213	72.3
DUOX2	2	-0.0388	111
DUOX2	3	-0.277	105
DUOX2	4	-0.134	84.3
PTGER4P2-CDK2AP2P2	1	-0.114	77.5
PTGER4P2-CDK2AP2P2	2	-0.262	111
PTGER4P2-CDK2AP2P2	3	-0.248	59.4
CCL5	1	0.059	83.9
CCL5	2	-0.0883	44
CCL5	3	0.00205	98.4
HIF3A	1	-0.0694	50.2
HIF3A	2	0.477	43.6
HIF3A	3	-0.389	54.4
HIF3A	4	-0.25	103
SGK3	1	0.294	20.3
SGK3	2	0.0023	108
SGK3	3	0.0157	83
SGK3	4	0.0699	70.3
SLC2A4	1	-0.218	17.9
SLC2A4	2	-0.481	60.9
SLC2A4	3	-0.628	77.5
SLC2A4	4	-0.205	74.3
HTR5A	1	0.00326	87
HTR5A	2	-0.218	98.6
HTR5A	3	-0.053	123
HTR5A	4	-0.0569	79.2
SAXO6	1	-0.0574	90.1
SAXO6	2	-0.00442	78.3
SAXO6	3	-0.129	84.6
SAXO6	4	-0.356	81.2
BMP8B	1	0.366	66.5
BMP8B	2	0.0731	67.8
BMP8B	3	-0.439	78.8
BMP8B	4	0.0895	49.8
HSPB8	1	0.492	76.3
HSPB8	2	-0.0741	99.5
HSPB8	3	0.0644	93.7
HSPB8	4	-0.241	62.1
NLGN3	1	-0.0619	68.2
NLGN3	2	0.766	27.9
NLGN3	3	-0.104	48.7
COL1A2	1	0.109	51.2
COL1A2	2	-0.193	70
COL1A2	3	0.0592	98.2
COL1A2	4	-0.672	33.2
MC4R	1	-0.491	110
MC4R	2	0.546	81.6
MC4R	3	0.164	79.6
MC4R	4	-0.149	69.2
IFNA4	1	-0.183	103
IFNA4	2	-0.389	76.9
IFNA4	3	-0.32	125
IFNA4	4	-0.165	101
IFNA4	5	-0.264	92.5
KCNIP2	1	-0.0169	103
KCNIP2	2	0.137	71.4
KCNIP2	3	0.058	69
KCNIP2	4	-0.298	110
ANXA2R	1	-0.0568	81.9
ANXA2R	2	0.162	9.64
ACADS	1	-0.416	107
ACADS	2	0.119	68
ACADS	3	-0.284	87.3
MYO18A	1	-0.0758	47.8
MYO18A	2	0.132	53.7
MYO18A	3	-0.0853	80.9
STS	1	-0.146	81
STS	2	0.165	66.6
STS	3	-0.0968	52.9
STS	4	0.142	89.6

9 of these entries, set out differently:
gene symbol,reagent,log2 vehicle/camptothecin viability,viability with camptothecin (% of control)
SLC2A4,2,-0.481,60.9
SLC2A4,3,-0.628,77.5
SLC2A4,4,-0.205,74.3
HTR5A,1,0.00326,87
HTR5A,2,-0.218,98.6
HTR5A,3,-0.053,123
HTR5A,4,-0.0569,79.2
SAXO6,1,-0.0574,90.1
SAXO6,2,-0.00442,78.3
